Values of other authors in patent US20220080020A1, “COMPOSITIONS AND METHODS FOR REDUCING THE TRAN[…] […] USING AN ORAL […] SYSTEM” (priority 2020, published 2022).
For at least one compound, name, drawing or mass did not settle the structure.

Test system: ACE2 receptor
Details: prevents covid 19 attachment

O=C1c2cccc(O)c2C(=O)c2c(O)cc(CO)cc21 [aloe emodin]
competition with the ACE2 receptor: compete with the ACE2 receptor
